Out of some 360,000 compounds screened, about 7,500 (2.1%) were called active. The inconclusive results got no clear call from the source; some entries with a clear call stand among them for comparison. Calls follow the shape of the dose curve; as a rule, active = well fitted inhibition curve with a large enough effect; inconclusive = small, poorly fitted or top-dose-only effect, or effect the other way; inactive = flat fitted curve, though single readings scatter. A potency beside an inconclusive call is a rough fit, not a confirmed value.
Assay: Nrf2 qHTS screen for inhibitors; also: nearly all actives have a fitted effect of over 60% in size
Conditions: A549 ARE-Fluc reporter, luciferase luminescence, 18-24 h; activity change, negative = inhibition: at 46 µM (top of the series)
Procedure, shortened: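 Concentration-response testing used A549 ARE_Fluc cells at 5000 cells/well. Following an 18-24 h compound incubation, viability was read by fluorescence (Ex 405/Em 525) and luciferase output by luminescence.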
% is scaled to controls: 0 for no effect and ±100 for the full control effect; potency is read from the fitted curve at half-maximal effect.

| Compound | Potency | activity change, negative = inhibition |
| --- | --- | --- |
| O=C(NCCc1ccccc1)C1CCN(C2CCN(Cc3ccco3)CC2)CC1 | inconclusive: 20.6 µM [activator, partial curve] | – |
| CN(C)CCN(Cc1ccco1)C(=O)c1oc2ccccc2c1NC(=O)c1cccc(F)c1 | – | inactive: 24.7% |
| CCOCCCNC(=O)c1ccc(-n2c(-c3ccccc3)cc3c2CCCCC3)cc1 | active: 18.4 µM | – |
| COc1ccccc1C1C(C(=O)c2ccc(C)o2)=C(O)C(=O)N1c1cc(C)on1 (centres undefined) | inconclusive: 20.6 µM [falling, single point] | – |
| CN(C[C@H](Cc1ccccc1)N(C[C@H](c1ccccc1)N(CCc1ccccc1)N=O)N=O)N=O | – | inactive: 4.01% |
| CS(=O)(=O)N(Cc1ccc(Cl)cc1)c1ccc(C(=O)N2CCN(c3ccccc3)CC2)cc1 | inconclusive: 16.4 µM [falling, single point] | – |
| COC(=O)c1ccc(C2C(C(=O)c3cc4ccccc4o3)=C(O)C(=O)N2c2cc(C)on2)cc1 (centres undefined) | inconclusive: 29.1 µM [falling, single point] | – |
| O=C(NNC(=O)C1CCN(S(=O)(=O)c2ccccc2)CC1)c1ccccc1O | inconclusive: 29.1 µM [falling, single point] | – |
| COc1cc2c(cc1OC)C(c1ccc3c(c1)OCO3)C1=C(CC(C)(C)CC1=O)N2 (centres undefined) | inconclusive: 20.6 µM [falling, partial curve, poor fit] | – |
| COc1cc(C(=O)OCC(=O)NCc2ccc(F)cc2)cc(NC(=O)c2cccs2)c1OC | inconclusive: 25.9 µM [falling, single point] | – |
| CCOC(=O)c1ccc(N=c2sc(C(=O)OC)cc(=O)n2-c2ccc(C(=O)OCC)cc2)cc1 | inconclusive: 16.4 µM [falling, single point] | – |
| CCOC(=O)c1c(NC(C)=O)c2c3c(sc2n1Cc1nc(-c2ccccc2Cl)oc1C)CCCC3 | – | inactive: -14.1% |
| Cc1ccc(/C=N/NC(=O)c2cc(C)oc2C)cc1 | inconclusive: 29.1 µM [activator, single point] | – |
| Cc1ccc(CNC(=O)c2cc3c(s2)-c2c(C)cccc2OC3)cc1 | inconclusive: 16.4 µM [falling, single point] | – |
| CCNC(=S)NNC(=O)c1cc(-c2ccc(OC)cc2)nc2ccccc12 | inconclusive: 18.4 µM [falling, single point] | – |
| O=C(CSc1nnc(-c2ccccc2)c(-c2ccccc2)n1)Nc1ccc(Br)cn1 | inconclusive: 20.6 µM [falling, partial curve, poor fit] | – |
| Cc1cccc(C(=O)NC2=NC(c3ccc(Cl)cc3)CC(=O)N2)c1 (centres undefined) | – | inactive: -26.9% |
| Cc1ccc(-n2cc(C(=O)c3cc(Cl)ccc3O)cc(C#N)c2=O)cc1 | – | inactive: 7.37% |
| Cc1ccc(C(=O)N/C(=C/c2cccs2)C(=O)NCCc2c[nH]c3ccccc23)cc1 | inconclusive: 18.4 µM [activator, partial curve] | – |
| CN(c1ccccc1)S(=O)(=O)c1cccc(NC(=O)CSc2ncc(C(F)(F)F)cc2Cl)c1 | inconclusive: 16.4 µM [falling, partial curve, poor fit] | – |
| COc1ccc(NC(=O)CN2CCC(C)CC2)c([N+](=O)[O-])c1 | inconclusive: 1.84 µM [activator, partial curve, poor fit] | – |
| O=C(Cc1ccccc1)Nc1c2c(nn1-c1cccc(Cl)c1)CS(=O)(=O)C2 | inconclusive: 6.51 µM [activator, single point] | – |

| Compound | Potency | activity change, negative = inhibition |
| --- | --- | --- |
| COc1cc2ccccc2cc1C(=O)Nc1ccc(CN2CCOCC2)cc1 | inconclusive: 29.1 µM [activator, single point] | – |
| CCOC(=O)c1ccc(NC(=O)Cn2ncc(Cl)c(Cl)c2=O)cc1 | inconclusive: 29.1 µM [activator, single point] | – |
| COc1ccccc1NC(=O)c1sc2nc3c(cc2c1N)CN(Cc1ccccc1)CC3 | inconclusive: 3.66 µM [activator, partial curve, poor fit] | – |
| COc1ccccc1N(C(=O)c1snc(C(N)=O)c1N)C(C(=O)NC1CCCC1)c1ccco1 (centres undefined) | inconclusive: 3.66 µM [activator, single point] | – |
| O=C(CSc1ncnc2c1cnn2-c1ccccc1)NCC1CCCO1 (centres undefined) | inconclusive: 25.9 µM [falling, single point] | – |
| CCNC(=O)c1c(NC(=O)c2nc(S(=O)(=O)CC)ncc2Cl)sc2c1CCCC2 | active: 20.6 µM | – |
| CCOC(=O)c1c(C)c(-c2ccccc2)n(CC(=O)NCCc2cccc(C)c2)c1C | – | inactive: 2.73% |
| COc1cccc2c1C1(O)C2CCCCCCCCCC12OCCCO2 (centres undefined) | inconclusive: 20.6 µM [activator, single point] | – |
| Cc1cc(C(=O)CSc2nnc(-c3ccc(F)cc3)o2)c(C)n1CC1COc2ccccc2O1 (centres undefined) | inconclusive: 18.4 µM [falling, partial curve, poor fit] | – |
| CSc1nc(N)nc(SCCS(=O)(=O)c2ccc(Cl)cc2)c1C#N | inconclusive: 20.6 µM [falling, single point] | – |
| CC(=O)c1cccc(NC(=O)NCc2ccc3c(c2)OCO3)c1 | – | inactive: 1.46% |
| COC(=O)c1ccc(NC(=O)c2ccccc2NS(=O)(=O)c2ccccc2)cc1 | inconclusive: 23.1 µM [falling, single point] | – |
| CCc1nc(C)cn1S(=O)(=O)c1ccc(Cl)c(Cl)c1OC | active: 5.8 µM | – |
| O=C(Nc1ccccc1)c1ccc(S(=O)(=O)NCc2cccnc2)cc1 | active: 13 µM | – |
| O=C(O)c1cc(-c2ccc(-c3c(-c4ccc5c(c4)OCO5)noc3-c3ccsc3)cc2)nc2ccccc12 | inconclusive: 25.9 µM [falling, partial curve, poor fit] | – |
| O=C(CCCn1c(=O)c2cccn2c2cccnc21)N1CCN(c2ccccc2F)CC1 | inconclusive: 25.9 µM [falling, partial curve, poor fit] | – |
| COc1ccc(N2CCN(c3ccc4nnc(CCC(=O)Nc5ccc(C)cc5)n4n3)CC2)cc1 | inconclusive: 10.3 µM [falling, partial curve, poor fit] | – |
| Cc1ccc(-c2nn(C)c(=O)c3ccccc23)cc1CNC(=O)c1ccccc1 | inconclusive: 18.4 µM [falling, partial curve] | – |
| Cn1nc(C(=O)N2CCN(c3ccc(F)cc3)CC2)c2c1-c1ccccc1SC2 | inconclusive: 20.6 µM [falling, single point] | – |
| CCN(C(=O)c1cn(CC(C)C)c(=O)c2cc(OC)c(OC)cc12)c1cc(OC)ccc1OC | – | inactive: -6.47% [at 9.27 µM] |
| CC(C)c1ccc(NC(=O)Cn2nnc(C(=O)NCc3ccc(Cl)cc3)c2N)cc1 | inconclusive: 18.4 µM [activator, single point] | – |
| O=C(N/N=C/c1ccccc1)c1cccc2ccccc12 | inconclusive: 25.9 µM [activator, single point] | – |

| Compound | Potency | activity change, negative = inhibition |
| --- | --- | --- |
| O=C1c2ccccc2C(=O)N1CCOc1ccccc1Cl | inconclusive: 14.6 µM [activator, partial curve, poor fit] | – |
| O=C(Cc1cccc2ccccc12)N/N=C1\CCCc2ccccc21 | inconclusive: 4.61 µM [falling, partial curve, poor fit] | – |
| Cc1c(C)c2ccc(OC(C)C(=O)NCCc3c[nH]c4ccccc34)cc2oc1=O (centres undefined) | – | inactive: -12.7% |
| O=C1Nc2ccccc2CCC1Sc1nnc(-c2ccc(Cl)cc2)s1 (centres undefined) | inconclusive: 29.1 µM [falling, single point] | – |
| CCOC(=O)N1CCC(NC(=O)C2CCCN(Cc3nc(-c4cccc(C)c4)oc3C)C2)CC1 (centres undefined) | inconclusive: 29.1 µM [falling, single point] | – |
| Cn1c(SCC(=O)N2CCN(c3cccc(Cl)c3)CC2)nnc1-c1ccncc1 | inconclusive: 6.51 µM [falling, partial curve] | – |
| Cc1ccc(NS(=O)(=O)c2cc3c(cc2-c2ccccc2)NC(=O)CO3)cc1C | – | inactive: 2.1% |
| CCN(CC)S(=O)(=O)c1cc(NC(=O)c2cc(-c3ccccn3)nc3ccccc23)ccc1C | inconclusive: 29.1 µM [falling, single point] | – |
| O=C(Nc1cccc(Cl)c1)C1CCCN(c2ncnc3c2nc2n3CCCCC2)C1 (centres undefined) | – | inactive: -4.85% [at 9.27 µM] |
| Fc1ccc2nc(Nc3nc4cc5c(cc4s3)OCCO5)sc2c1 | inconclusive: 8.2 µM [activator, partial curve] | – |
| O=C(Cn1cnc2c(nc3n2CCCCC3)c1=O)Nc1ccc(F)c(Cl)c1 | inconclusive: 23.1 µM [activator, single point] | – |
| O=C1/C(=C\c2cc(Cl)c(O)c(Cl)c2)SC(=S)N1Cc1ccccc1 | active: 18.4 µM | – |
| C/C(=N\Nc1nncc2ccccc12)c1ccc(O)cc1 | inconclusive: 1.3 µM [activator, full curve] | – |
| O=S(=O)(NCc1ccc2c(c1)OCO2)c1cccc(F)c1 | – | inactive: 5.14% |
| CCCN1Cc2cccc(C(=O)N3CCN(c4cc(Cl)ccc4C)CC3)c2C1=O | inconclusive: 29.1 µM [falling, single point] | – |
| CC(C(=O)c1ccccc1)C(O)c1ccccn1 (centres undefined) | inconclusive: 20.6 µM [activator, single point] | – |
| CCNC(=O)NC(=O)CSc1cccc(C(F)(F)F)c1 | inconclusive: 29.1 µM [falling, single point] | – |
| CC(C)c1ccc(NC(=O)N2CCC(c3nc4ccccc4o3)CC2)cc1 | inconclusive: 18.4 µM [falling, partial curve, poor fit] | – |
| Cc1ccccc1N1CCN(S(=O)(=O)c2ccc3ccccc3c2)CC1 | inconclusive: 29.1 µM [falling, single point] | – |
| Cc1cc(CNC(=O)CC2C(=O)NCCN2Cc2ccc(-c3ccccc3)cc2)nn1C (centres undefined) | inconclusive: 29.1 µM [falling, single point] | – |

As entered above:
Cn1c(SCC(=O)N2CCN(c3cccc(Cl)c3)CC2)nnc1-c1ccncc1 – Potency: inconclusive: 6.51 µM [falling, partial curve]
COc1ccc(N2CCN(c3ccc4nnc(CCC(=O)Nc5ccc(C)cc5)n4n3)CC2)cc1 – Potency: inconclusive: 10.3 µM [falling, partial curve, poor fit]
CCc1nc(C)cn1S(=O)(=O)c1ccc(Cl)c(Cl)c1OC – Potency: active: 5.8 µM
COc1ccc(NC(=O)CN2CCC(C)CC2)c([N+](=O)[O-])c1 – Potency: inconclusive: 1.84 µM [activator, partial curve, poor fit]
COc1ccccc1N(C(=O)c1snc(C(N)=O)c1N)C(C(=O)NC1CCCC1)c1ccco1 (centres undefined) – Potency: inconclusive: 3.66 µM [activator, single point]

— PubChem BioAssay AID504444 (National Center for Advancing Translational Sciences (NCATS), 2011)
